Entries after “also recorded” stand apart in the source; their conditions may differ. Part of at least one peptide drawing is inferred or uncertain, most often the ends. Where a SMILES comes first, the peptide text is derived from it. [ ]: non-standard residue; d: D form. Sta = CC(C)C[C@H](N)[C@@H](O)CC(=O)O
Target: T1, β-secretase (BACE-1) (Mus musculus, UniProt P56818)
T1 construct: endogenous in cells; host or cells: N2a murine neuroblastoma cells infected with recombinant adenovirus carrying APP (swAPP)
Experiment: Whole cell β-secretase assay: βAPPs release from N2a cells expressing APP (ELISA)
Format: cell-based, murine
Settings: test compound 10 nM to 10 μM, 3-4 hr

Amino acid sequences for entries named in this document (tags omitted). Residues count along the entry.
UniProt P56818, 46-501: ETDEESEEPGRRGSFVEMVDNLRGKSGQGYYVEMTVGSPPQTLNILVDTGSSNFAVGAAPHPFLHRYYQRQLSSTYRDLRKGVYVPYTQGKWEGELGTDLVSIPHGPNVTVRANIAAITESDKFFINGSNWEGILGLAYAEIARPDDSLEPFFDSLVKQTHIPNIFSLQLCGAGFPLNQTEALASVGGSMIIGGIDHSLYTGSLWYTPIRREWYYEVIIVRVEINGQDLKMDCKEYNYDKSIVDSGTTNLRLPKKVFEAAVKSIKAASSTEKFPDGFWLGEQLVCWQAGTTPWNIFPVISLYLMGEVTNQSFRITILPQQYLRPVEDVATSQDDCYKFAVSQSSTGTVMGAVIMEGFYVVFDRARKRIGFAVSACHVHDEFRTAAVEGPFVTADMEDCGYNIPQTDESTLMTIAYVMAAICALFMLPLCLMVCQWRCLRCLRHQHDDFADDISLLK

## CC(C)C[C@H](NC(=O)[C@H](CC(N)=O)NC(=O)[C@@H](NC(=O)[C@@H](N)CCC(=O)O)C(C)C)[C@@H](O)CC(=O)N[C@H](C(=O)N[C@@H](C)C(=O)N[C@@H](CCC(=O)O)C(=O)N[C@@H](Cc1ccccc1)C(N)=O)C(C)C [inhibitor III, Glu-Val-Asn-Sta-Val-Ala-Glu-Phe-CONH2] (H-EVN[Sta]VAEF-NH2; N-terminus assumed)
  inhibition of βAPPs production / β-secretase activity in whole cell assay (in words): not inhibitory; also recorded: completely inactive
